# Source: the supplement of paper PMC10735217
# Structures can show the parent of a compound that is named as a salt. The list shows a part of the results. Single values are uncertain here, since repeats match poorly.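 The human kidney-derived cells carry a stably integrated construct of eight TEAD-binding elements driving luciferase, read by luminescence in a drug-repurposing library screen. A compound counts as a hit when its signal is more than five robust Z scores above the plate mean.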
# System: HEK293A TEAD-LUC reporter
# Assay: TEAD-luciferase reporter activity (YAP activation), robust Z score vs plate; higher = stronger YAP/TEAD activation
# Details: 24 h
Structure (SMILES),TEAD-luciferase reporter activity (compound concentration: 200 nM),TEAD-luciferase reporter activity (compound concentration: 2 uM),TEAD-luciferase reporter activity (compound concentration: 10 uM)
CCCn1c(=O)c2[nH]c(C34CC5CC(CC3C5)C4)nc2n(CCC)c1=O [Rolofylline],inactive: 0.531,inactive: -0.369,inactive: -0.212
CCOC(=O)Nc1ccc(NCc2ccc(F)cc2)nc1N [flupirtine],inactive: -1.33,inactive: -0.335,inactive: -0.143
COC(=O)CCNCCC1COc2ccccc2C1 (stereo not drawn),inactive: -1.07,inactive: -1.15,inactive: 1
C[C@H](NS(=O)(=O)c1cnc2n1[C@](C)(Cc1ccc(OC(F)(F)F)cc1)C(=O)N2c1cc(Cl)cc(Cl)c1)C(N)=O,inactive: -1.67,inactive: -0.84,inactive: -0.966
CCC(C)(C)/N=C(\NC#N)Nc1cccnc1,–,inactive: 1.26,–
C=CCSS(=O)CC=C (stereo not drawn) [Allicin],–,inactive: 0.069,inactive: 1.37
CCN(CC)CCCNc1nccc2c(C)c3[nH]c4ccc(O)cc4c3c(C)c12,inactive: -1.68,inactive: 0.768,inactive: 4.52
Cc1ccc(NC(=O)NCCCCN2CCN(c3csc4cc(C(F)(F)F)ccc34)CC2)cc1,inactive: -1.14,inactive: -1.98,inactive: 0.911
Cc1ccn(-c2ccc(C(=O)N3Cc4cccn4Cc4ccccc43)c(Cl)c2)n1,inactive: -0.817,inactive: -0.338,inactive: 0.678
N=C(N)NCCCCNC(=N)N [Arcarine],–,inactive: 0.0644,–
N=C(N)NCCCCNC(=N)N [Arcaine sulfate],inactive: -0.41,–,inactive: 0.0262
O=C(N[C@@H](c1ccccc1)[C@@H]1CCCCN1)c1cccc(C(F)(F)F)c1Cl,inactive: 0.342,inactive: -1.54,inactive: 2.73
COC(=O)[C@H](C)NP(=O)(OC[C@H]1O[C@@H](n2cc(/C=C/Br)c(=O)[nH]c2=O)C[C@@H]1O)Oc1ccccc1 (stereo partly drawn) [Thymectacin],inactive: -1.66,inactive: -0.627,inactive: 1.5
Nc1ncnc2c1C(=O)N(c1ccc([C@H]3CC[C@H](CC(=O)O)CC3)cc1)CCO2,inactive: 1.1,inactive: -0.346,inactive: -0.426
CC[C@@H](C)[C@@H](CO[C@@H](Cc1ccccc1)C(=O)N[C@@H](CCS(C)(=O)=O)C(=O)OC(C)C)NC[C@@H](N)CS,inactive: -0.798,inactive: -0.304,inactive: 1.68
CC(C)(C)NC[C@H](O)COc1cccc2c1CCCC2=O [levobunolol],–,inactive: -1.57,–
CC(C)(C)NC[C@H](O)COc1cccc2c1CCCC2=O [Levobunolol?HCl],inactive: -0.258,–,inactive: -0.755
COc1cc2oc(=O)c(C)c(C)c2cc1OCCCN1CCN(c2ccccc2OC)CC1,inactive: -1.77,inactive: -0.612,inactive: -0.433
CCCCCCCCCCCCCCCCCC(N)=O,inactive: -1.42,inactive: 0.62,inactive: 1.84
COc1cn(-c2ccc(-n3cccn3)cc2F)nc(-c2ccnn2-c2ccccc2)c1=O,inactive: -2.05,inactive: -0.738,inactive: 0.423
CC(C)CCCC(C)CCCC(C)CCCCC(C)CCCC(C)CCCC(C)C (stereo not drawn),inactive: 0.707,inactive: 0.648,inactive: -0.433
CCCOC1CCC(N(C(=O)Nc2ncc(SCC(=O)O)s2)C2CCCCC2)CC1 (stereo not drawn),inactive: -1.04,inactive: -0.744,inactive: -0.713
COc1ccc2c(c1OC)C(C1c3c(cc4c(c3OC)OCO4)CCN1C)OC2=O (stereo not drawn),inactive: -1.46,inactive: 0.328,inactive: 0.987
CC(C)(C)NCc1cc(Nc2ccnc3cc(Cl)ccc23)c2c(c1O)CCCC2 [Naphthoquine phosphate],inactive: -0.381,–,inactive: 1.44
CCCCCCCCCCCC[N+](C)(C)C,inactive: -1.37,inactive: -1.98,inactive: -0.851
Cc1cc(-n2nc3ccc(Cl)cc3n2)c(O)c(C(C)(C)C)c1,inactive: -0.378,inactive: 2.08,inactive: -0.429

# Full records as entered above:
# Cc1ccn(-c2ccc(C(=O)N3Cc4cccn4Cc4ccccc43)c(Cl)c2)n1 in the list: TEAD-luciferase reporter activity (compound concentration: 200 nM): inactive: -0.817; TEAD-luciferase reporter activity (compound concentration: 2 uM): inactive: -0.338; TEAD-luciferase reporter activity (compound concentration: 10 uM): inactive: 0.678
# C[C@H](NS(=O)(=O)c1cnc2n1[C@](C)(Cc1ccc(OC(F)(F)F)cc1)C(=O)N2c1cc(Cl)cc(Cl)c1)C(N)=O in the list: TEAD-luciferase reporter activity (compound concentration: 200 nM): inactive: -1.67; TEAD-luciferase reporter activity (compound concentration: 2 uM): inactive: -0.84; TEAD-luciferase reporter activity (compound concentration: 10 uM): inactive: -0.966
